Patent US4033721A, “Analysis of gentian violet residue in tissue” (priority 1976, dated 1977)

Legend:
[1] = Detection of 14C-gentian violet in spiked chick liver samples (Example 27)
[2] = Extraction of gentian violet residue from eggs or tissue

CN(C)c1ccc(C(=C2C=CC(=[N+](C)C)C=C2)c2ccc(N(C)C)cc2)cc1 [^14 C-gentian violet]
Mean dpm/Sample ([1]; 2.7 dpm added (13.7 dpm/g)): 55.4 dpm/Sample
Mean dpm/g ([1]; 2.7 dpm added (13.7 dpm/g)): 283 dpm/g
Mean dpm/Sample ([1]; 10 dpm added (50.7 dpm/g)): 65.5 dpm/Sample
Mean dpm/g ([1]; 10 dpm added (50.7 dpm/g)): 331 dpm/g
Mean dpm/Sample ([1]; 20 dpm added (97 dpm/g)): 82.2 dpm/Sample
Mean dpm/g ([1]; 20 dpm added (97 dpm/g)): 400 dpm/g
Mean dpm/Sample ([1]; 50 dpm added (266 dpm/g)): 114.8 dpm/Sample
Mean dpm/g ([1]; 50 dpm added (266 dpm/g)): 608 dpm/g
detection limit ([1]; 95 percent confidence limits): above 4 ppb
Mean dpm/Sample ([1]; 100 dpm added (522 dpm/g)): 201.0 dpm/Sample
Mean dpm/g ([1]; 100 dpm added (522 dpm/g)): 1049 dpm/g

CN(C)c1ccc(C(=C2C=CC(=[N+](C)C)C=C2)c2ccc(N(C)C)cc2)cc1 [gentian violet, hexamethylpararosaniline chloride]
extraction of gentian violet residue by acidified alcohol [2]: ≥ 99%
extraction of gentian violet residue by straight ethanol [2]: at most 50%
